In all, about 210,000 compounds went through this assay and about 5,900 (2.8%) were called active. Another 5% or so got no clear call; they are omitted. Calls come from the whole dose curve; as a rule, active = well fitted activation curve with a large enough effect; inconclusive = small, poorly fitted or top-dose-only effect; inactive = no such curve, though single readings can be large or run the other way. Only a part is listed here, and it is no random draw. Entries without a call were filed so in the source.
Potency is the fitted concentration of half-maximal effect.

This experiment in a line: qHTS Assay for Enhancers of SMN2 Splice Variant Expression. For activity change, positive = activation: % of control where 0% means no effect. Note: nearly all actives have a fitted effect of over 55% in size. As to conditions: HEK293 SMN2-luciferase splicing reporter, luminescence, 30-36 h; activity change, positive = activation: at 46.1 µM (top of the series) unless noted. The gist of the method:
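HEK293 cells carry an SMN2 […]–luciferase reporter in which exon 7 inclusion puts luciferase in frame. Cells were plated 10-12 h before compound addition, then incubated 30-36 h at 37C. ONE-Glo luminescence was read; sodium butyrate at 4.5 mM final served as control.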
Turning to `O=C1c2ccccc2C(=O)N1CC1c2ccccc2CCN1S(=O)(=O)c1cnc[nH]1` (centres undefined), the activity change, positive = activation stood at 29.9%.
With `Cc1cc(N2CCCC2)c(F)cc1/C=C\[N+](=O)[O-]`, the activity change, positive = activation is -99.6%.
As to `CCn1cc(C(=O)OCC(=O)NCc2ccc3c(c2)OCO3)c(=O)c2ccc(C)nc21`, the activity change, positive = activation came to 36.1%.
Same read-out and setting: the figure for `CN(c1ccccc1C(=O)N1CCN(c2cccc(Cl)c2)CC1)S(C)(=O)=O` is 28.6%; for `CN1CCN(CC#CCn2c3ccccc3c3ccccc32)CC1` it is 54%.
For the compound `O=C(CCC(=O)c1cccs1)NC1CCCCCC1`, the activity change, positive = activation worked out at 53.4%.
For `Cc1cccc(C)c1Nc1c(-c2ccccc2F)nc2cccc(C)n12`, the “activity change, positive = activation” value was inactive: -103%.
On to `COc1cc(S(=O)(=O)NCCOC23CC4CC(CC(C4)C2)C3)c(OC)cc1Cl`, for which the “activity change, positive = activation” value is inactive: -57.9%.
Same read-out and setting: the figure for `O=P(COCCO)(c1ccccc1)c1ccccc1` is 37.3%; for `Cc1ccc(N2CCN(c3ccc(NCc4nc5ccccc5n4C)cc3)CC2)cc1` it is inactive: -24.9%.
For the compound `CC1(C)Cc2c(sc3nnn(Cc4ccccc4)c(=O)c23)CO1`, the activity change, positive = activation was -49.8%.
Consider `O=C(Nc1nccs1)c1ccc(-c2ccc([N+](=O)[O-])cc2)o1`, for which the Potency is active: 12.6 µM.
As for `O=C(NCCCl)c1ccc(OCc2ccccc2)cc1Cl`, the Potency was active: 12.6 µM.
Regarding `CCOC(=O)c1ccc(NS(=O)(=O)c2cnc[nH]2)cc1`, the activity change, positive = activation was found to be 23.2%.
For the compound `CCc1cc2c(=O)c(-c3nc4ccccc4[nH]3)coc2cc1OC(=O)N1CCOCC1`, the “activity change, positive = activation” value was inactive: -34.8%.
`O=C(Nc1ccc(S(=O)(=O)N2CCc3ccccc32)cc1)c1ccc2c(c1)OCO2`: the “activity change, positive = activation” value is inactive: -30.6%.
With `CCN(C(=O)C1CCC(CNS(=O)(=O)c2cccc3nsnc23)CC1)c1ccc(C)c(C)c1` (centres undefined), the “activity change, positive = activation” value was inactive: -7.15%.
Consider `O=C(NC1CCCCCC1)c1ccc(OCC2CCCO2)cc1` (centres undefined), for which the Potency is active: 12.6 µM.
Take `CCCCc1c(C)c(C#N)c2[nH]c3ccccc3n2c1=O`: the activity change, positive = activation is -62.2%.
On to `Cc1ncc([N+](=O)[O-])n1CCO`, for which the activity change, positive = activation is 0.915%.
For the compound `CSc1nnc(NC(=O)c2ccc(S(=O)(=O)N(C)C)cc2)s1`, the Potency was active: 12.6 µM.
Regarding `c1ccc(-c2csc3ncnc(NCCN4CCOCC4)c23)cc1`, the activity change, positive = activation was -66.5%.
Regarding `O=C(NC12CC3CC(CC(C3)C1)C2)c1ccc(-c2ccc(Br)cc2)o1`, the Potency was active: 15.8 µM.
For `COCCCNC(=O)c1ccc(Cn2c(=O)c3ccccc3n(CC(=O)NCc3ccco3)c2=O)cc1`, the activity change, positive = activation amounted to 64%.
Turning to `CCSc1cc(C2C(C#N)=C(N)OC(C)=C2C(=O)OC)c(C)o1` (centres undefined), the activity change, positive = activation turned out to be 34.1%.
Same read-out and setting: the figure for `CCCc1ncc(C(O)c2ccccc2OC)n1C` (centres undefined) is inactive: -33.3%; for `CC(=O)Nc1cccc(NC(=O)c2c(-c3ccccc3Cl)noc2C)c1` it is -30.4%.
Still for that read-out and setting: the result for `CCn1cc(C(=O)O)c(=O)c2cc(F)c(N/N=C/c3ccccc3)cc21` reads -78.7%.
For the compound `Cc1ccc(-c2cn(-c3ccc(SC(F)F)cc3)c3[n+]2CCC3)cc1`, the activity change, positive = activation was -59.8%.

For the origin of these results see PubChem BioAssay AID1458 (National Center for Advancing Translational Sciences (NCATS), 2008).
